Data as given in PubChem BioAssay AID686938 (Drosophila RNAi Screening Center, 2013).

Aim: 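Knock-downs reducing store-operated calcium influx in Drosophila cells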 (primary screen)
Cells: Drosophila S2R+ cells
Reagents: long dsRNA against Drosophila genes, about 0.25 µg dsRNA per well, roughly 10,000 cells
Timing: 5 days of knock-down before the calcium assay
Treatment: thapsigargin (SERCA pump blocker) to empty calcium stores; entry signal taken 4 min after adding it
Measurement: 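Per-well fluo-4 fluorescence in two replicates, unnormalised, measured in resting cells and 4 min after store depletion by the SERCA blocker thapsigargin; ratio of the two present in few wells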
Reading the numbers: calcium entry signal: higher = stronger calcium signal after store depletion; resting calcium signal: higher = higher resting calcium signal
Active means: 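Called when the plate z-score of the entry-to-rest ratio, mean of duplicates, falls below −3; wells with low overall dye signal (Fmax z below −2) or more than five off-targets excluded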
Calls: active = strongly reduced calcium entry; inactive = no strong reduction
The deposit covers about 23,000 reagents; this is an unselected part of those with a known target gene and a result. Of all reagents, 75 (0.33%) were called active. 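Raw plate signals without normalisation; calls rest on plate z-scores that were not deposited; ratio present for only 364 wells.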 The record does not give: the dose of the treatment.

gene knocked down	dsRNA	calcium entry signal, replicate 1 (fluorescence units)	calcium entry signal, replicate 2 (fluorescence units)	resting calcium signal, replicate 1 (fluorescence units)	resting calcium signal, replicate 2 (fluorescence units)	Outcome
CG14684	DRSC14907	4.03e7	3.29e7	2.01e7	1.74e7	inactive
CG10802	DRSC17762	5.13e7	5.01e7	2.22e7	2.24e7	inactive
M7BP (Myosin-7a binding protein)	DRSC05053	2.33e7	4.12e7	1.20e7	1.67e7	inactive
M7BP (Myosin-7a binding protein)	DRSC05054	2.58e7	3.12e7	1.27e7	1.48e7	inactive
M7BP (Myosin-7a binding protein)	DRSC05932	3.04e7	1.96e7	1.22e7	9.59e6	inactive
M7BP (Myosin-7a binding protein)	DRSC06701	3.30e7	4.00e7	2.01e7	1.86e7	inactive
M7BP (Myosin-7a binding protein)	DRSC06816	4.53e7	3.66e7	2.08e7	1.53e7	inactive
CG42857	DRSC12750	3.27e7	4.55e7	1.65e7	2.13e7	inactive
CG8993	DRSC08616	3.61e7	3.80e7	1.76e7	1.76e7	inactive
Su(z)3 (retired record)	DRSC07558	1.45e7	3.05e7	1.06e7	1.41e7	inactive
Su(z)3 (retired record)	DRSC22970	6.46e7	2.89e7	2.77e7	1.15e7	inactive
CG8086	DRSC03078	4.97e7		2.19e7		inactive
CG8086	DRSC03079	3.03e7	4.90e7	1.47e7	2.06e7	inactive
CG31515	DRSC13610	3.17e7	3.12e7	1.44e7	1.53e7	inactive
tey (teyrha-meyrha)	DRSC11042	3.54e7	3.56e7	1.63e7	1.71e7	inactive
tey (teyrha-meyrha)	DRSC21709	3.15e7	3.35e7	1.70e7	1.48e7	inactive
mRpS23 (mitochondrial ribosomal protein S23)	DRSC01348	4.25e7	4.70e7	1.81e7	1.83e7	inactive
CG7069	DRSC16188	3.90e7	3.48e7	2.01e7	1.60e7	inactive
Arl2 (ADP ribosylation factor-like 2)	DRSC14117	2.55e7	2.00e7	1.20e7	1.00e7	inactive
unc-119	DRSC18846	3.70e7	4.06e7	1.80e7	1.82e7	inactive
CG10265	DRSC05986	4.14e7	3.50e7	1.93e7	1.55e7	inactive
CG10265	DRSC21680	3.79e7	3.95e7	2.22e7	1.73e7	inactive
Klp98A (Kinesin-like protein at 98A)	DRSC16724	1.69e7	3.94e7	9.39e6	1.69e7	inactive
Klp98A (Kinesin-like protein at 98A)	DRSC21834	2.70e7	3.79e7	1.53e7	1.63e7	inactive
eIF2Balpha (eukaryotic translation initiation factor 2B subunit alpha)	DRSC16332	3.18e7	4.03e7	1.51e7	1.71e7	inactive
Drsl1 (Drosomycin-like 1)	DRSC22490	3.95e7	2.74e7	2.46e7	1.44e7	inactive
LPCAT (Lysophosphatidylcholine acyltransferase)	DRSC18157	4.58e7	6.49e7	2.07e7	2.86e7	inactive
LPCAT (Lysophosphatidylcholine acyltransferase)	DRSC18257	3.26e7	3.77e7	1.63e7	1.71e7	inactive
CG32204	DRSC09574	2.05e7	3.06e7	9.89e6	1.37e7	inactive
ASPP	DRSC04305	2.67e7	3.23e7	1.53e7	1.49e7	inactive
ASPP	DRSC23069	4.65e7	3.33e7	2.13e7	1.30e7	inactive
Tip60 (Tat interactive protein 60kDa)	DRSC18661	4.29e7	4.63e7	2.69e7	2.81e7	inactive
CG2574	DRSC19862	5.82e7	6.19e7	2.78e7	2.57e7	inactive
CG18628	DRSC10328	2.51e7	3.73e7	1.29e7	1.62e7	inactive
CG14668	DRSC12254	2.95e7	2.50e7	1.51e7	1.35e7	inactive
CG42254 (retired record)	DRSC06194	3.40e7	3.93e7	1.68e7	1.70e7	inactive
CG7376	DRSC10829	4.61e7	3.23e7	2.97e7	1.52e7	inactive
CG11226	DRSC11639	2.71e7	4.23e7	1.35e7	1.93e7	inactive
CG33477	DRSC22934	5.66e7	3.94e7	2.48e7	1.57e7	inactive
Mst57Db (Male-specific RNA 57Db)	DRSC21551	3.35e7	4.76e7	1.84e7	1.99e7	inactive

Reprinted from above (3 entries):
gene knocked down	dsRNA	calcium entry signal, replicate 1 (fluorescence units)	calcium entry signal, replicate 2 (fluorescence units)	resting calcium signal, replicate 1 (fluorescence units)	resting calcium signal, replicate 2 (fluorescence units)	Outcome
CG14668	DRSC12254	2.95e7	2.50e7	1.51e7	1.35e7	inactive
CG42254 (retired record)	DRSC06194	3.40e7	3.93e7	1.68e7	1.70e7	inactive
CG7376	DRSC10829	4.61e7	3.23e7	2.97e7	1.52e7	inactive
